Results as given in patent publication US9606132B2, “Methods of monitoring adherence to lurasidone therapy” (Ameritox, Ltd., priority 2013, dated 2017).
The source gives many values for each of these; only a part stands here.

Assay: Quantitative urine testing of patients prescribed Latuda for compliance over 5 days (Examples 2-7)

Lurasidone
urine concentration (60 mg/day Latuda, Day 1, individual subjects): 15.6 ng/mL | urine concentration (60 mg/day Latuda, Day 5, individual subjects): 37.3 ng/mL | urine concentration (100 mg/day Latuda, Day 1, subject twenty-one): 94.9 ng/mL | urine concentration (100 mg/day Latuda, Day 4, subject twenty-one): 62.5 ng/mL | urine concentration (100 mg/day Latuda, Day 5, subject twenty-one): 64.5 ng/mL
